From patent US12410220B2, “Modulation of mammalian cell lineage by synthetic immodulins” (priority 2021, dated 2025)
The name of at least one read-out is uncertain. Marks after values point to notes of the source that are not given here.

System: THP1-Dual monocytes
Experiment: THP1-Dual differentiation assay, immX3 peptide plus helper or inhibitor molecule
Type: cell-based, human
Conditions: immX3 peptide (330 nM) in all samples plus helper at the concentration given; immX3 with buffer = 100.0
Method: Mammalian cell differentiation assays using THP1-Dual monocytes reporter cell line (Invivogen Inc, San Diego, CA) seeded at 2×10e5 cells per well in 96-well plates and cultured at 37 degrees C. in RPMI-1640 growth medium plus 10% fetal bovine serum and 1% penicillin/streptomycin, then treated for 24 hours with either 100 ng/ml Phorbol 12-myristate 13-acetate (PMA protocol; Cayman Chemical Company, Ann Arbor, MI) or a mixture of IL-4 (100 ng/ml), GM-CSF (100 ng/ml), TNF-alpha (20 ng/ml) and ionomycin (200 ng/ml) (Cytokine protocol; Peprotech, Rocky Hill, NJ). Peptide (330 nM) was then added, and incubation continued for an additional 24 hours. Culture supernatants were then assayed for CCL22. Plates with adherent cells were washed with PBS and assayed for immunoreactivity of surface markers such as CD169, Clec9a, Clec12a or MHCII using fuorescent tag- or biotin-labeled anti-human antibodies purchased from Miltenyi Biotec (Auburn, CA) and a relevant secondary detection reagent, or by fluorescence counts.
The THP1-Dual cell differentiation assay was carried out as described above in Example 2, using immX3 peptide (330 nM) in all samples plus the indicated helper or inhibitor molecule. AU=arbitrary ELISA units. **p<0.01.

SMILES: CC(=O)O[C@@H]1C[C@H](O)[C@@]23CO[C@@H](O)[C@]1(C)[C@@H]2C[C@@H](O)[C@]1(C)[C@@H]3C(=O)[C@H](OC(C)=O)[C@@]2(C)[C@H](c3ccoc3)C[C@H]3O[C@]321 [Toosendanin, reference compound]
- CD169 (AU): 188.2 ± 16.3** AU
